Results from patent US6340698B1, “Antifungal solutions” (priority 1999, dated 2002).
At least one structure is not confirmed: it was looked up by name or label, or the drawing left a doubt.

How the values were obtained:
[1] = Solubility in strong acids (glacial acetic acid, concentrated hydrochloric acid); format: physicochemical; conditions: 1 g of free itraconazole
From the text: For example, 1 g of free itraconazole can be dissolved in about 3 g of glacial acetic acid or about 3 to 4 g of concentrated hydrochloric acid (i.e. 36-38% HCl in water).

[2] = Dilution with water of a solution in strong acid; format: physicochemical; conditions: solution in strong acid diluted with water to weaken the acid
Procedure: However, strongly acidic solutions are unsuitable for oral administration, and if a solution of itraconazole or saperconazole in strong acid is diluted with water to weaken the acid, the itraconazole or saperconazole precipitates.

In the case of `CCC(C)n1ncn(-c2ccc(N3CCN(c4ccc(OCC5COC(Cn6cncn6)(c6ccc(Cl)cc6Cl)O5)cc4)CC3)cc2)c1=O` (stereo not drawn) [itraconazole, Itraconazole], the “amount of concentrated hydrochloric acid in which 1 g can be dissolved” value ([1]; concentrated hydrochloric acid (36-38% HCl in water)) was 3 to 4 g, the “amount of glacial acetic acid in which 1 g can be dissolved” value ([1]; glacial acetic acid) was “about 3 g” and the “behaviour when solution in strong acid is diluted with water” value [2] was “precipitates”.
